Source: paper PMC5536325
No constants are given. Whether binding was seen depends on the method and setting. In cells and extracts the contact can be indirect. Some binding calls cover weakened binding; strength is not graded here.

Chains of the proteins cited; added tags and fusions are not shown.
UniProt P23242: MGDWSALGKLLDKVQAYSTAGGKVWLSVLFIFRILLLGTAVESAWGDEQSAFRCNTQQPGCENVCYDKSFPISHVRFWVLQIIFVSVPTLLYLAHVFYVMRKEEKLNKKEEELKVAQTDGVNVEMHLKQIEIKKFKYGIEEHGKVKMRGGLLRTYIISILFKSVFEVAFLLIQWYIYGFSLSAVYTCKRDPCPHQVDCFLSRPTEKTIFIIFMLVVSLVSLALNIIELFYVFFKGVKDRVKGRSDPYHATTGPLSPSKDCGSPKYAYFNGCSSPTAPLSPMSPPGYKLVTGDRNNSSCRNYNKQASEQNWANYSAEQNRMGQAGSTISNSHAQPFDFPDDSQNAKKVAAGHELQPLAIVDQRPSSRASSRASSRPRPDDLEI
UniProt P28236: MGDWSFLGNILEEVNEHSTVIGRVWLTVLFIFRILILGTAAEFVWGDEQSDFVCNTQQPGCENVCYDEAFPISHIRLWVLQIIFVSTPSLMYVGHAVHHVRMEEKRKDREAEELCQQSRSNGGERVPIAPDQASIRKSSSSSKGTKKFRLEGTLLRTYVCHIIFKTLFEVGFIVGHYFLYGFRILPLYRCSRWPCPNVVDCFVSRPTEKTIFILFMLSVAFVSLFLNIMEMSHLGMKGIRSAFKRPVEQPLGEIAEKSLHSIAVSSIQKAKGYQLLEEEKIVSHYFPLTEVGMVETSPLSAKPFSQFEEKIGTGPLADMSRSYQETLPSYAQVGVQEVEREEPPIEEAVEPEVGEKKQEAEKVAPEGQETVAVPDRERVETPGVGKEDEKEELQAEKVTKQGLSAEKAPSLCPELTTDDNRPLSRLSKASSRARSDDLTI

Target: Connexin 43 (GJA1) (mouse (endogenous in TtT/GF)) (UniProt P23242)
Assay: co-IP; pre-cleared whole TtT/GF cell lysates (2 mg/ml) incubated overnight at 4°C with rabbit polyclonal anti-Cx43 or buffer (control), protein A Sepharose 4B beads 4 h at 4°C; Western blot with mouse anti-Cx50 or mouse anti-Cx43

- binding: binds
Substance: Connexin 50 (GJA8) (from UniProt P28236 1-440)
